Results are given in words; binding and its absence hold for the method and conditions named. Some binding calls cover weakened binding; strength is not graded here.
Target: Neuropilin-1 on CD4+ T cells contained in murine splenocytes (mouse) (UniProt P97333)
Assay: flow cytometry, phage clone on murine splenocytes, biotinylated anti-phage antibody and fluorescent streptavidin

Binder	binding
VSYKAIR [phage clone FL4 (displayed peptide VSYKAIR)]	binds
GGSKPVR [phage clone FL8 (displayed peptide GGSKPVR)]	binds
